# Earlier results as cited in patent US20110218517A1, “IN VIVO CHEMICAL STABILIZATION OF VULNERABLE PLAQUE” (priority 2009, published 2011).
# At least one compound was matched to its structure with a doubt left.
# System: abdominal aorta
# Conditions: periarterial treatment; clinically relevant model of aortic aneurysms
compound,measurement,value
"O=C(OC[C@H]1O[C@@H](OC(=O)c2cc(O)c(O)c(O)c2)[C@H](OC(=O)c2cc(O)c(O)c(O)c2)[C@@H](OC(=O)c2cc(O)c(O)c(O)c2)[C@@H]1OC(=O)c1cc(O)c(O)c(O)c1)c1cc(O)c(O)c(O)c1 [PGG, Pentagalloylglucose]",aneurysmal dilatation of the abdominal aorta,hinders aneurysmal dilatation of the abdominal aorta
same,elastin fiber integrity,preserves elastin fiber integrity
